PubChem BioAssay AID1259260 | Sanger Institute – 2017
Screen: 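Kinases whose knock-down kills colorectal cancer cells or boosts drug effects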 (primary screen). Cell system: human NCI-H716 colorectal cancer cells. Reagent: siRNA pool against human genes. Challenge: anchor drugs BYL719 (alpelisib) 1 µM, cetuximab 5 µg/ml or trametinib 10 nM, each at a dose chosen to harm viability only mildly; DMSO vehicle for the knock-down-alone arm. Measurement: 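Mean viability over replicates against non-targeting siRNA, robust z-score without drug, and per-drug synergy comparing combined with single treatments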. Direction: viability robust z-score, siRNA alone: higher = more surviving cells; below -3 called essential. Active means: 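a knock-down counts as essential if its no-drug robust z-score is lower than -3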. Calls: active = essential (knock-down alone lowers viability); inactive = no essential effect.
This is an unselected part of 794 deposited reagents. 13 of all reagents (1.6%) were called active. 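Calls reflect only knock-down without drug; synergy above 0.15 was grouped apart and does not change the call.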 Entries without a mark were called inactive. Not all columns of the deposit are shown. Reagent sequences are not shown. Not stated in the record: the amount of reagent, the time to read-out.

WNK3 (WNK lysine deficient protein kinase 3) [SID152156066] → viability robust z-score, siRNA alone: 0.602
CDK12 (cyclin dependent kinase 12) [SID152151382] → viability robust z-score, siRNA alone: -0.438
CDK7 (cyclin dependent kinase 7) [SID152150057] → viability robust z-score, siRNA alone: 0.602
NME2 (NME/NM23 nucleoside diphosphate kinase 2) [SID152149420] → viability robust z-score, siRNA alone: -0.885
CDK6 (cyclin dependent kinase 6) [SID56478600] → viability robust z-score, siRNA alone: 0.602
PRKAG1 (protein kinase AMP-activated non-catalytic subunit gamma 1) [SID135621699] → viability robust z-score, siRNA alone: -0.178
SMC1A (structural maintenance of chromosomes 1A) [SID134311995] → viability robust z-score, siRNA alone: 0.538
PTK7 (protein tyrosine kinase 7 (inactive)) [SID135620629] → viability robust z-score, siRNA alone: 0.602
EPHB4 (EPH receptor B4) [SID152156322] → viability robust z-score, siRNA alone: 0.2
STKLD1 (serine/threonine kinase like domain containing 1) [SID152151495] → viability robust z-score, siRNA alone: -0.707
CDK9 (cyclin dependent kinase 9) [SID152156235] → viability robust z-score, siRNA alone: 0.602
SCYL3 (SCY1 like pseudokinase 3) [SID56479033] → viability robust z-score, siRNA alone: 0.15

2 entries from above, sorted by “viability robust z-score, siRNA alone”, descending:
CDK7 (cyclin dependent kinase 7) [SID152150057] → viability robust z-score, siRNA alone: 0.602
CDK12 (cyclin dependent kinase 12) [SID152151382] → viability robust z-score, siRNA alone: -0.438
